Test results as given in PMC12670160, “A drug-repurposing screen of FDA- and EMA-approved drugs identifies two NF-κB inhibitors active against eumycetoma” (Journal of Antimicrobial Chemotherapy, 2025).
Where a name gives a salt, the structure may show the parent alone. Out of some 5,300 compounds screened, about 130 (2.5%) showed an effect of 50% or more. This is one part of the list.

The compounds below were run on M. mycetomatis strain mm55. Settings: primary screen, metabolic activity vs growth control; 96 h, 2 µM; inhibitor.

| SMILES | % viability |
| --- | --- |
| Cc1ncc(CN2CC=C(c3ccccc3)CC2)c(N)n1 [ONC0003615, ro105824] | 72.51% |
| COc1ccc2c(c1)c(CC(=O)O)c(C)n2C(=O)c1ccc(Cl)cc1 [ONC0000394, indomethacin] | 69.22% |
| CCCC[N+]1(C)[C@@H]2C[C@@H](OC(=O)[C@@H](CO)c3ccccc3)C[C@H]1[C@@H]1O[C@@H]12 (stereo partly drawn) [ONC0005197, butylscopolamine bromide scopolamine butylb] | 109.1% |
| CNC(=O)c1cc(Oc2ccc(NC(=O)Nc3cc(C(C)(C)C)nn3-c3ccc4ncccc4c3)c(F)c2)ccn1 [ONC0004608, dcc2036 rebastinib] | 105.1% |
| OC[C@H]1O[C@H](O[C@]2(CCl)O[C@H](CCl)[C@@H](O)[C@@H]2O)[C@H](O)[C@@H](O)[C@H]1Cl [ONC0004000, sucralose] | 82.48% |
| CCC/N=C1\S/C(=C\c2ccc(OC[C@H](O)CO)c(Cl)c2)C(=O)N1c1ccccc1C [ONC0001053, ponesimod] | 79.17% |
| O=C(C1CCCCC1)N1CC(=O)N2CCc3ccccc3C2C1 (stereo not drawn) [ONC0000502, praziquantel] | 91.73% |
| Cc1oc(-c2ccccc2)nc1CCC(=O)c1ccc(CC2SC(=O)NC2=O)cc1 (stereo not drawn) [ONC0003800, darglitazone] | 110.3% |
| O=S(=O)(O)c1ccc(O)cc1 [ONC0002572, 4phenolsulfonic acid sodium salt dihydrate] | 87.37% |
| C[C@]1(O)C[C@@H](c2nc(-c3ccc4ccc(-c5ccccc5)nc4c3)c3c(N)nccn32)C1 [ONC0004719, osi906 linsitinib] | 125.6% |
| C(=C\c1ccccc1)/CN1CCN(C(c2ccccc2)c2ccccc2)CC1 [ONC0003130, cinnarazine] | 70.81% |
| COc1ccc(C(=O)N2CCCC2=O)cc1 [ONC0003147, aniracetam] | 64.68% |
| CN(C)CCCC(=O)Nc1ccc(C(=O)Nc2cccc(Nc3ncc(Cl)c(-c4c[nH]c5ccccc45)n3)c2)cc1 [ONC0000993, thz1r] | 83.26% |
| O=C(Nc1ccccc1-c1cn2c(CN3CCNCC3)csc2n1)c1cnc2ccccc2n1 [ONC0004726, srt1720 hcl] | 103.6% |
| CCCC(CCC)C(=O)Nc1ccn([C@@H]2O[C@H](CO)[C@@H](O)C2(F)F)c(=O)n1 [ONC0000963, ly2334737] | 78.95% |
| CCCCCCCCCCCCCCCCCC(=O)OCC(O)[C@H]1OC[C@H](O)[C@H]1O (stereo partly drawn) [ONC0002989, sorbitanmonostearate] | 79.74% |
| O=C(O)c1cc(/N=N/c2ccc(O)c(C(=O)O)c2)ccc1O [ONC0000450, olsalazine sodium] | 85.91% |
| CC(=O)NCCCS(=O)(=O)O [ONC0004105, acamprosate calcium] | 129.5% |
| Cc1c(N)nc([C@H](CC(N)=O)NC[C@H](N)C(N)=O)nc1C(=O)N[C@H](C(=O)N[C@H](C)[C@@H](O)[C@H](C)C(=O)N[C@H](C(=O)NCCc1nc(-c2nc(C(=O)NCCCNCCCCN)cs2)cs1)[C@@H](C)O)[C@@H](O[C@@H]1O[C@@H](CO)[C@@H](O)[C@H](O)[C@@H]1O[C@@H]1O[C@H](CO)[C@@H](O)[C@H](OC(N)=O)[C@@H]1O)c1cnc[nH]1 [ONC0002990, bleomycetin] | 3.217% |
| COc1cc2c(=O)c(-c3ccc(O)cc3)coc2cc1O [ONC0003860, glycitein] | 66.71% |

A different layout for part of the listing above:
SMILES | % viability
COc1ccc(C(=O)N2CCCC2=O)cc1 [ONC0003147, aniracetam] | 64.68%
CN(C)CCCC(=O)Nc1ccc(C(=O)Nc2cccc(Nc3ncc(Cl)c(-c4c[nH]c5ccccc45)n3)c2)cc1 [ONC0000993, thz1r] | 83.26%
O=C(Nc1ccccc1-c1cn2c(CN3CCNCC3)csc2n1)c1cnc2ccccc2n1 [ONC0004726, srt1720 hcl] | 103.6%
CCCC(CCC)C(=O)Nc1ccn([C@@H]2O[C@H](CO)[C@@H](O)C2(F)F)c(=O)n1 [ONC0000963, ly2334737] | 78.95%

The list continues:

| SMILES | % viability |
| --- | --- |
| C/C=C1\C(=O)C[C@H]2[C@@H]3CCC4=CC(=O)CC[C@]4(C)[C@H]3CC[C@]12C [ONC0001265, gr235] | 85.08% |
| CN(C)CC(=O)Nc1ccc2[nH]c(=O)c3ccccc3c2c1 [ONC0001831, pj34 hydrochloride] | 108.2% |
| CC(C(=O)OC1CC2CCC(C1)N2C)c1ccc(Br)cc1 (stereo not drawn) [ONC0000036, pg9] | 95.75% |
| CNC(=O)c1cc(Oc2ccc(NC(=O)Nc3ccc(Cl)c(C(F)(F)F)c3)c(F)c2)ccn1 [ONC0004706, regorafenib bay 734506] | 107.3% |
| O=C(O[C@H]1C[C@H]2CC[C@@H](C1)[N+]21CCCC1)C(O)(c1ccccc1)c1ccccc1 [ONC0005218, trospium chloride sanctura] | 139% |
| CC(C)(C)NCC(O)COc1cccc2c1CCC(=O)N2 (stereo not drawn) [ONC0000983, carteolol hydrochloride] | 72% |
| N#Cc1cc2c(OCC(O)CN3CCN(C(c4ccccc4)c4ccccc4)CC3)cccc2[nH]1 (stereo not drawn) [ONC0003436, sdz201 106] | 52.03% |
| CC(C)NCC(O)COc1ccccc1-n1cccc1 (stereo not drawn) [ONC0002641, isamoltane] | 68.8% |
| CNC[C@H](O)c1ccc(O)c(O)c1 [ONC0000669, epinephrine bitartrate] | 159.5% |
| O=C(NCc1ccccc1)c1csc(Nc2ccncn2)n1 [ONC0004852, thiazovivin] | 84.03% |
| C=CC(=O)Nc1cc2c(Nc3ccc(F)c(Cl)c3)ncnc2cc1OCCCN1CCOCC1 [ONC0004577, ci1033 canertinib] | 79.34% |
| Nc1cc(Cl)c(N=C2NCCN2)c(Cl)c1 [ONC0003355, apraclonidine] | 59.86% |
| NCC(CS(=O)(=O)O)c1ccc(Cl)cc1 (stereo not drawn) [ONC0001443, saclofen] | 70.24% |
| CC1(C)[C@@H]2C[C@H]1[C@@](C)(O)[C@@H](O)C2 [ONC0005321, pinanediol] | 118.6% |
| CC(S)C(=O)NCC(=O)O (stereo not drawn) [ONC0005336, tiopronin] | 75.05% |
| COc1ccc(OC)c(C(O)CNC(=O)CN)c1 (stereo not drawn) [ONC0002895, midodrine hydrochloride] | 90.3% |
| CO[C@H]1CC[C@@H](C(=O)c2ccc3nc4c(cc3c2)CCCO4)CC1 [ONC0003582, jnj16259685] | 123% |
| COC(=O)Nc1nc2ccc(C(=O)c3cccs3)cc2[nH]1 [ONC0000832, nocodazole] | 65.92% |
| Nc1ccn([C@@H]2C(F)=C(CO)[C@@H](O)[C@H]2O)c(=O)n1 [ONC0005434, rx3117] | 88.23% |
| CN1CCN(CCCN2c3ccccc3Sc3ccc(C(F)(F)F)cc32)CC1 [ONC0003239, trifluoperazine hydrochloride] | 119.8% |

| SMILES | % viability |
| --- | --- |
| CCCCCCCCCCCCCCCCCCN(CCCCCCCCCCCCCCCCCC)CCCN(CCO)CCO [ONC0003941, avridine] | 89.03% |
| N#Cc1cccc(-c2c[nH]c3ncnc(N4CCOCC4)c23)c1 [ONC0001009, pf06447475] | 99.29% |
| O=C(CCc1ccc(O)cc1)c1c(O)cc(O)cc1O [ONC0005262, phloretin] | 144.8% |
| O=c1[nH]c2cc([N+](=O)[O-])c([N+](=O)[O-])cc2[nH]c1=O [ONC0001451, dnqx] | 73.5% |
| NC(=O)c1cccc2cn(-c3ccc([C@@H]4CCCNC4)cc3)nc12 [ONC0001051, niraparib] | 84.35% |
| O=c1cc(N2CCOCC2)nc2c3ccccc3ccn12 [ONC0000183, compound401] | 76.29% |
| O=C(c1ccccc1)C(O)c1ccccc1 (stereo not drawn) [ONC0003782, benzoin] | 96.78% |
| CC[C@@H](C(N)=O)N1CCCC1=O [ONC0004079, levetiracetam] | 91.88% |
| CC(=O)NS(=O)(=O)c1ccc(NC(=O)c2ccccc2C(=O)O)cc1 [ONC0003990, phthalylsulfacetamide] | 74.66% |
| C=CCN1CCc2nc(N)sc2CC1 [ONC0001170, talipexole dihydrochloride] | 113% |
| COc1cc2c(cc1OC)CN(C(=O)/C=C/c1c(-c3ccccc3)n(C)c3ncccc13)CC2 [ONC0003581, sis3] | 130.5% |
| COc1ccc2cc(-c3cc(-c4cc(Cl)cc(Cl)c4)nn3[C@@H](C)c3ccc(C(=O)NCCC(=O)O)cc3)ccc2c1 [ONC0002086, mk 0893] | 59.82% |
| CC(=O)NC1[C@@H](O)OC(CO)[C@@H](O)[C@H]1O (stereo partly drawn) [ONC0002960, nacetylmannosamine] | 104.5% |
| CO[C@@H]1[C@H](N(C)C(=O)c2ccccc2)C[C@H]2O[C@]1(C)n1c3ccccc3c3c4c(c5c6ccccc6n2c5c31)C(=O)NC4 [ONC0003481, pkc412 midostaurin] | 56.44% |
| CC(C)Cn1cnc2c1c(=O)n(C)c(=O)n2C [ONC0003457, isbufylline] | 84.25% |
| CC(C)(C#N)c1cc(Cn2cncn2)cc(C(C)(C)C#N)c1 [ONC0004081, anastrozole] | 146% |
| Cc1csc2c(N[C@@H](C)CN3CCN(S(=O)(=O)c4ccc(Cl)c(Cl)c4)CC3)ncnc12 [ONC0001129, lpa2 antagonist 1] | 45.06% |
| C[C@@H](O)[C@H]1C(=O)N2C(C(=O)O)=C(S[C@@H]3CN[C@H](CNS(N)(=O)=O)C3)[C@H](C)[C@H]12 [ONC0001829, doripenem monohydrate] | 88.72% |
| COc1cccc(-c2cc(=O)c3ccccc3o2)c1N [ONC0001348, pd98059] | 99.72% |
| CC(=O)c1ccc2c(c1)N(CCCN(C)C)c1ccccc1S2 [ONC0004160, acepromazine maleate] | 77.83% |
